Key:
Type in all cases: cell-based
MCF-7 cells = experiment: MTS cytotoxicity assay, MCF-7; conditions: Homo sapiens, MCF7, 72 h incubation
Description: (§1) M. Rusin from the Maria Sklodowska-Curie Memorial Cancer Centre and Institute of Oncology in Gliwice, Poland. […] G. Kramer-Marek from the Institute of Cancer Research in London, United Kingdom. The human suspension chronic myelogenous leukemia cell line K562 and pancreas ductal adenocarcinoma cell line PANC-1 were purchased from Sigma-Aldrich (St. Louis, MO, USA), while the normal human dermal fibroblasts cell line NHDF were purchased from PromoCell. […] Each medium contained a combination of two antibiotics: penicillin and streptomycin (1% v/v; Gibco). All of these cell lines were grown under standard conditions at 37 °C with a 5% CO2 humidified atmosphere. Moreover, all of the cell lines were routinely tested for mycoplasma using the PCR technique with specific Mycoplasma primers to confirm that there was no contamination.
(§2) The assay was performed following a 72 h incubation with the various concentrations of the tested compounds. Then, 100 µL DMEM without phenol red with 20 µL of the CellTiter 96®AQueous One Solution-MTS (Promega, Promega, WI, USA) was added to each well and incubated for 1 h or 3 h (PANC-1) at 37 °C. The optical densities of the samples were measured at 490 nm using a multi-plate reader (Synergy 4, BioTek, Winooski, VT, USA). […] Each individual compound was tested in triplicate in a single experiment with each experiment being performed three or four times.

PANC-1 cells = experiment: MTS cytotoxicity assay, PANC-1; conditions: Homo sapiens, 72 h incubation
Description: as §1, §2

HCT 116 p53^+/+ cells = experiment: MTS cytotoxicity assay, HCT 116 p53+/+; conditions: Homo sapiens, 72 h incubation
Description: as §1, §2

HCT 116 p53^−/− cells = experiment: MTS cytotoxicity assay, HCT 116 p53-/-; conditions: Homo sapiens, 72 h incubation
Description: as §1, §2

A549 cells = experiment: MTS cytotoxicity assay, A549; conditions: Homo sapiens, A549, 72 h, 72 h incubation
Description: as §1, §2

NHDF cells = experiment: MTS cytotoxicity assay, normal fibroblasts NHDF; conditions: NHDF normal human fibroblasts, 72 h incubation
Description: The human colon carcinoma cell line HCT 116 wild type (p53^+/+), the human breast carcinoma cell line MCF-7 and the human alveolar basal epithelial cell line A549 were obtained from ATCC. The human colon cancer cell line HCT 116 with a p53 deletion (p53^−/−) was kindly supplied by prof. M. Rusin from the Maria Sklodowska-Curie Memorial Cancer Centre and Institute of Oncology in Gliwice, Poland. The glioblastoma cell line U-251 was kindly provided by prof. G. Kramer-Marek from the Institute of Cancer Research in London, United Kingdom. The human suspension chronic myelogenous leukemia cell line K562 and pancreas ductal adenocarcinoma cell line PANC-1 were purchased from Sigma-Aldrich (St. Louis, MO, USA), while the normal human dermal fibroblasts cell line NHDF were purchased from PromoCell. All of the adherent cancer cell lines were cultured in Dulbecco’s modified Eagle’s medium (DMEM) that had been supplemented with 12% heat-inactivated fetal bovine serum–FBS (all from Sigma-Aldrich) in 75 cm^2 flasks (Nunc). […]
The cells were seeded in 96-well plates (Nunc) at a density of 5000 cells per well (K562, HCT 116, MCF-7, U-251, A549, PANC-1) or 4000 cell per well (NHDF) and incubated under standard conditions at 37 °C for 24 h. […] The optical densities of the samples were measured at 490 nm using a multi-plate reader (Synergy 4, BioTek, Winooski, VT, USA). […]

U-251 cells = experiment: MTS cytotoxicity assay, U-251; conditions: Homo sapiens, 72 h incubation
Description: as §1, §2

Structure (SMILES): Cc1ccc(NC(=O)c2ccc(CN3CCN(C)CC3)cc2)cc1Nc1nccc(-c2cccnc2)n1 [Imatinib, reference compound]
- IC50 (MCF-7 cells): > 25 µM
- IC50 (PANC-1 cells): > 25 µM
- IC50 (HCT 116 p53^+/+ cells): 44.6 ± 2.41 µM
- IC50 (HCT 116 p53^−/− cells): 51.2 ± 4.09 µM
- IC50 (A549 cells): > 25 µM
- IC50 (NHDF cells): > 25 µM
- IC50 (U-251 cells): > 25 µM

— PMC8068801, “Novel Benzenesulfonate Scaffolds with a High Anticancer Activity and G2/M Cell Cycle Arrest” (Cancers, 2021)
